{"source": "PubChem BioAssay AID1159584 (Peter MacCallum Cancer Centre, 2016)", "aim": "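Knock-downs that harm CDH1-null cells more than parental MCF10A cells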 (primary screen)", "cells": "human MCF10A breast epithelial cells, parental and CDH1-null", "reagent": "siRNA against human genes", "measured": "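ATP luminescence (CellTiter-Glo) viability per line relative to mean mock wells over all plates, and the ratio of CDH1-null to parental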", "reading the numbers": "CDH1-null / parental viability ratio: higher = CDH1-null cells survive relatively better than parental; CDH1-null viability vs mock: higher = more viable CDH1-null cells", "note": "This is an unselected part of about 18,000 reagents. Further read-outs or replicates are left out here. Reagent sequences are not shown. Not given: the amount of reagent, the time to read-out."}
{"gene knocked down": "PRCC (GeneID 5546)", "PubChem SID": "SID134319837", "CDH1-null / parental viability ratio": 0.99, "CDH1-null viability vs mock (fraction of mock)": 0.8}
{"gene knocked down": "TNR (GeneID 7143)", "PubChem SID": "SID152154504", "CDH1-null / parental viability ratio": 1.08, "CDH1-null viability vs mock (fraction of mock)": 0.93}
{"gene knocked down": "OR10G3 (GeneID 26533)", "PubChem SID": "SID134329916", "CDH1-null / parental viability ratio": 1.06, "CDH1-null viability vs mock (fraction of mock)": 1.02}
{"gene knocked down": "HSD17B1 (GeneID 3292)", "PubChem SID": "SID152151812", "CDH1-null / parental viability ratio": 1.03, "CDH1-null viability vs mock (fraction of mock)": 1.05}
{"gene knocked down": "ADAP1 (GeneID 11033)", "PubChem SID": "SID135622391", "CDH1-null / parental viability ratio": 1.17, "CDH1-null viability vs mock (fraction of mock)": 0.82}
{"gene knocked down": "ADCK2 (GeneID 90956)", "PubChem SID": "SID56478993", "CDH1-null / parental viability ratio": 1.3, "CDH1-null viability vs mock (fraction of mock)": 0.86}
{"gene knocked down": "LCE1E (GeneID 353135)", "PubChem SID": "SID134322843", "CDH1-null / parental viability ratio": 0.78, "CDH1-null viability vs mock (fraction of mock)": 0.64}
{"gene knocked down": "SURF4 (GeneID 6836)", "PubChem SID": "SID134315118", "CDH1-null / parental viability ratio": 0.93, "CDH1-null viability vs mock (fraction of mock)": 0.66}
{"gene knocked down": "ATL2 (GeneID 64225)", "PubChem SID": "SID134318232", "CDH1-null / parental viability ratio": 1.05, "CDH1-null viability vs mock (fraction of mock)": 1.15}
{"gene knocked down": "FNIP1 (GeneID 96459)", "PubChem SID": "SID135625163", "CDH1-null / parental viability ratio": 1.07, "CDH1-null viability vs mock (fraction of mock)": 0.98}
{"gene knocked down": "MAP2K4 (GeneID 6416)", "PubChem SID": "SID56478690", "CDH1-null / parental viability ratio": 0.96, "CDH1-null viability vs mock (fraction of mock)": 0.65}
{"gene knocked down": "RP1L1 (GeneID 94137)", "PubChem SID": "SID152147685", "CDH1-null / parental viability ratio": 0.87, "CDH1-null viability vs mock (fraction of mock)": 0.48}
{"gene knocked down": "TUBA8 (GeneID 51807)", "PubChem SID": "SID134314128", "CDH1-null / parental viability ratio": 0.99, "CDH1-null viability vs mock (fraction of mock)": 0.76}
{"gene knocked down": "LAMA5 (GeneID 3911)", "PubChem SID": "SID134321186", "CDH1-null / parental viability ratio": 0.99, "CDH1-null viability vs mock (fraction of mock)": 1.05}
{"gene knocked down": "PORCN (GeneID 64840)", "PubChem SID": "SID134314342", "CDH1-null / parental viability ratio": 1.12, "CDH1-null viability vs mock (fraction of mock)": 0.63}
{"gene knocked down": "MYBBP1A (GeneID 10514)", "PubChem SID": "SID152153253", "CDH1-null / parental viability ratio": 1.32, "CDH1-null viability vs mock (fraction of mock)": 0.7}
{"gene knocked down": "LYLDT1 (GeneID 121273)", "PubChem SID": "SID134319974", "CDH1-null / parental viability ratio": 0.87, "CDH1-null viability vs mock (fraction of mock)": 0.72}
{"gene knocked down": "CHDH (GeneID 55349)", "PubChem SID": "SID152148375", "CDH1-null / parental viability ratio": 0.89, "CDH1-null viability vs mock (fraction of mock)": 0.75}
{"gene knocked down": "UPF3B (GeneID 65109)", "PubChem SID": "SID134317121", "CDH1-null / parental viability ratio": 0.99, "CDH1-null viability vs mock (fraction of mock)": 0.82}
{"gene knocked down": "B4GALT4 (GeneID 8702)", "PubChem SID": "SID134315847", "CDH1-null / parental viability ratio": 0.89, "CDH1-null viability vs mock (fraction of mock)": 0.73}
{"gene knocked down": "CYFIP1 (GeneID 23191)", "PubChem SID": "SID135622687", "CDH1-null / parental viability ratio": 0.83, "CDH1-null viability vs mock (fraction of mock)": 0.63}
{"gene knocked down": "MRGPRF (GeneID 116535)", "PubChem SID": "SID152154766", "CDH1-null / parental viability ratio": 0.82, "CDH1-null viability vs mock (fraction of mock)": 0.53}
{"gene knocked down": "PHPT1 (GeneID 29085)", "PubChem SID": "SID135623234", "CDH1-null / parental viability ratio": 1.38, "CDH1-null viability vs mock (fraction of mock)": 0.83}
{"gene knocked down": "ARHGAP10 (GeneID 79658)", "PubChem SID": "SID152149165", "CDH1-null / parental viability ratio": 1.4, "CDH1-null viability vs mock (fraction of mock)": 1.29}

Laid out differently: 3 of the entries above
LAMA5 (GeneID 3911) [SID134321186]
- CDH1-null / parental viability ratio: 0.99
- CDH1-null viability vs mock (fraction of mock): 1.05

PORCN (GeneID 64840) [SID134314342]
- CDH1-null / parental viability ratio: 1.12
- CDH1-null viability vs mock (fraction of mock): 0.63

MYBBP1A (GeneID 10514) [SID152153253]
- CDH1-null / parental viability ratio: 1.32
- CDH1-null viability vs mock (fraction of mock): 0.7
